Source: PubChem BioAssay AID504749 (NCATS, 2011).

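Malaria parasite (P. falciparum) lines kept in red blood cells; parasite DNA is measured by SYBR Green fluorescence after lysis, 72 h after compound addition.
Each compound was titrated across a series from about 0.000037 to 29 µM.
The number is the fitted AC50, the concentration giving a half-maximal change in signal; a lower value means higher potency, whether the curve shows a decrease or an increase.
Calls follow the curve class and fit quality: every row here is inconclusive, covering signal-raising curves and weak, poorly fitted, partial or highest-dose-only inhibition curves.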

Values are in nM.
All entries here are filed as inconclusive.
These entries are mostly ones the record files as inconclusive; other results of the assay are not listed here.
A potency from a partial, single-point or poor curve is only a rough figure.

* COc1ccc(CN2CCNCC2)c(OC)c1OC [DIV14] : fitted potency 7208 nM (inhibitor, single point)
* COc1ccc(CN2CCNCC2)c(OC)c1OC [PC26] : fitted potency 8087 nM (inhibitor, single point)
* COc1ccc(CN2CCNCC2)c(OC)c1OC [CP211] : fitted potency 8087 nM (inhibitor, single point)
* COc1ccc(CN2CCNCC2)c(OC)c1OC [CP201] : fitted potency 8087 nM (inhibitor, single point)
* COc1ccc(CN2CCNCC2)c(OC)c1OC [CP203] : fitted potency 7208 nM (inhibitor, single point)
* COc1ccc(CN2CCNCC2)c(OC)c1OC [CP268] : fitted potency 5726 nM (inhibitor, single point)
* COc1ccc(CN2CCNCC2)c(OC)c1OC [DIV30] : fitted potency 8087 nM (inhibitor, single point)
* COc1ccc(CN2CCNCC2)c(OC)c1OC [CP194] : fitted potency 6424 nM (inhibitor, single point)
* COc1ccc(CN2CCNCC2)c(OC)c1OC [GB4] : fitted potency 6424 nM (inhibitor, single point)
* COc1ccc(CN2CCNCC2)c(OC)c1OC [CP305] : fitted potency 8087 nM (inhibitor, single point)
* COc1ccc(CN2CCNCC2)c(OC)c1OC [W2] : fitted potency 4.5 nM (inhibitor, full curve, poor fit)
* COc1ccc(CN2CCNCC2)c(OC)c1OC [CP215] : fitted potency 8087 nM (inhibitor, single point)
* COc1ccc(CN2CCNCC2)c(OC)c1OC [CP329] : fitted potency 6424 nM (inhibitor, single point)
* COc1ccc(CN2CCNCC2)c(OC)c1OC [DIV17] : fitted potency 8087 nM (inhibitor, single point)
* COc1ccc(CN2CCNCC2)c(OC)c1OC [CP266] : fitted potency 8087 nM (inhibitor, single point)
* CCCCCCCCCc1ccc(OCCOCCOCCOCCOCCOCCOCCOCCOCCO)cc1 [DIV14] : fitted potency 10690 nM (inhibitor, partial curve)
* CCCCCCCCCc1ccc(OCCOCCOCCOCCOCCOCCOCCOCCOCCO)cc1 [CP211] : fitted potency 15101 nM (inhibitor, single point)
* CCCCCCCCCc1ccc(OCCOCCOCCOCCOCCOCCOCCOCCOCCO)cc1 [CP335] : fitted potency 9528 nM (inhibitor, single point)
* CCCCCCCCCc1ccc(OCCOCCOCCOCCOCCOCCOCCOCCOCCO)cc1 [CP194] : fitted potency 15101 nM (inhibitor, partial curve, poor fit)
* CCCCCCCCCc1ccc(OCCOCCOCCOCCOCCOCCOCCOCCOCCO)cc1 [CP237] : fitted potency 11220 nM (inhibitor, single point)
* CCCCCCCCCc1ccc(OCCOCCOCCOCCOCCOCCOCCOCCOCCO)cc1 [GB4] : fitted potency 16944 nM (inhibitor, single point)
* CCCCCCCCCc1ccc(OCCOCCOCCOCCOCCOCCOCCOCCOCCO)cc1 [parasite line A] : fitted potency 17782 nM (inhibitor, single point)
* CCCCCCCCCc1ccc(OCCOCCOCCOCCOCCOCCOCCOCCOCCO)cc1 [CP215] : fitted potency 15101 nM (inhibitor, partial curve, poor fit)
* CCCCCCCCCc1ccc(OCCOCCOCCOCCOCCOCCOCCOCCOCCO)cc1 [HB3] : fitted potency 11220 nM (inhibitor, single point)
* CCCCCCCCCc1ccc(OCCOCCOCCOCCOCCOCCOCCOCCOCCO)cc1 [SC27B] : fitted potency 12589 nM (inhibitor, single point)
* CCCCCCCCCc1ccc(OCCOCCOCCOCCOCCOCCOCCOCCOCCO)cc1 [3D7] : fitted potency 10000 nM (inhibitor, single point)

3 of the entries, repeated:

CCCCCCCCCc1ccc(OCCOCCOCCOCCOCCOCCOCCOCCOCCO)cc1 [GB4] read fitted potency 16944 nM (inhibitor, single point).
CCCCCCCCCc1ccc(OCCOCCOCCOCCOCCOCCOCCOCCOCCO)cc1 [DIV14] read fitted potency 10690 nM (inhibitor, partial curve).
COc1ccc(CN2CCNCC2)c(OC)c1OC [W2] read fitted potency 4.5 nM (inhibitor, full curve, poor fit).